Source: patent US20100061996A1
Results are given in words; binding and its absence hold for the method and conditions named. Some results given as binding are weak or reduced against the parent protein; the word gives no strength.

Chains of the proteins cited; added tags and fusions are not shown. Residues count along the entry.
UniProt P00747, residues 97-810: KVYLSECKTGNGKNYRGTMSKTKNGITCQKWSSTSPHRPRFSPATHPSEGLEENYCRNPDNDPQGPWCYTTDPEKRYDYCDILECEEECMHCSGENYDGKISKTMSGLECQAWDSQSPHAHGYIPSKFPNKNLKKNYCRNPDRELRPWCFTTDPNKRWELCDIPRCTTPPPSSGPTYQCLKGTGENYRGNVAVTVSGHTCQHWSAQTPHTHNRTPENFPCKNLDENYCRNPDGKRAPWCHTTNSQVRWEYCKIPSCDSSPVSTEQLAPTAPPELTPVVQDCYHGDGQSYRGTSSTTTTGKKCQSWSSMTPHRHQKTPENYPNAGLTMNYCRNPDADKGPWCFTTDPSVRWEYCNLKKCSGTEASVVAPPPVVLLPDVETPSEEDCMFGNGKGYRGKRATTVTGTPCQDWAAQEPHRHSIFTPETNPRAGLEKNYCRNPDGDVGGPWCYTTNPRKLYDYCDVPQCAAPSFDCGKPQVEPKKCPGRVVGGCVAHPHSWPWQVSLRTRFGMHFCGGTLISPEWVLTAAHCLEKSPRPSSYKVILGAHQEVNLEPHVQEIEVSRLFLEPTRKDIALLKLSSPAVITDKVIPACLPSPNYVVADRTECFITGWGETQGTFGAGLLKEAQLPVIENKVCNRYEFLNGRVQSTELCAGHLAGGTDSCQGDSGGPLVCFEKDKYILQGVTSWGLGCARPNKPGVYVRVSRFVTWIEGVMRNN
UniProt P05981, residues 45-417: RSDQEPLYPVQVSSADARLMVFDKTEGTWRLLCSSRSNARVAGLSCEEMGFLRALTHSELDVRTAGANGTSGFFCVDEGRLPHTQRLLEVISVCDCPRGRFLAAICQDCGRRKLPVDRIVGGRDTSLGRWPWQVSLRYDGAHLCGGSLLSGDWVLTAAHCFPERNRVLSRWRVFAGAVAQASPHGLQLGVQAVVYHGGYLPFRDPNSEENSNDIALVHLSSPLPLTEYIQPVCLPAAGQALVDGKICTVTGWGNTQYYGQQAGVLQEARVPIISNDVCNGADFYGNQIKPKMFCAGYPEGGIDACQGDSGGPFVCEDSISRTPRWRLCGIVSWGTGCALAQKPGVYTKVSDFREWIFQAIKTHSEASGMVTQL

Columns and labels:
Lys-plasmin = Lys-plasmin (UniProt P00747); assay: enzyme inhibition (data not shown)
[1] = target: T1, HGFA (hepatocyte growth factor activator) (UniProt Q04756); assay: enzyme inhibition (data not shown)
T1 sequence (looked up): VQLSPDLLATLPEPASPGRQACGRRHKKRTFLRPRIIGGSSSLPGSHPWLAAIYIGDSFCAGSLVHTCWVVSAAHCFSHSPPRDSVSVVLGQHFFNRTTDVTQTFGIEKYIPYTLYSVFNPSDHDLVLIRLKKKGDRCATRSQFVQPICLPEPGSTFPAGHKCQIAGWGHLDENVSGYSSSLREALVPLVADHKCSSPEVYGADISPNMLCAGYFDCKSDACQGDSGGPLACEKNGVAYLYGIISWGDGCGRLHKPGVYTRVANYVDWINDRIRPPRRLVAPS

[2] = target: soluble His-tagged hepsin comprising the entire extracellular domain of human hepsin (Arg45-Leu417) (human) (UniProt P05981); assay: enzyme inhibition, 400 nM HAI-2 used to stop pro-uPA cleavage
[3] = target: T2, matriptase protease domain (UniProt Q9Y5Y6); assay: as above
T2 sequence (looked up): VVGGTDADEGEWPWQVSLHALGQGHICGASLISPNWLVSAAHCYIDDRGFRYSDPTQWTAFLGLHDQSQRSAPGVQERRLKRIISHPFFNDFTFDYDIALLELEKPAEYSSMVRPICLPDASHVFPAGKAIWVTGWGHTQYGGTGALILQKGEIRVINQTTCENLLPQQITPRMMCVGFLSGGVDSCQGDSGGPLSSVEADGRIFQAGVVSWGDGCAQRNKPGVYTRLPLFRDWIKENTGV

[4] = target: soluble His-tagged hepsin comprising the entire extracellular domain of human hepsin (Arg45-Leu417) (human) (UniProt P05981); assay: enzyme inhibition
[5] = target: T2, matriptase protease domain; assay: enzyme inhibition

Measured: binding

B1: soluble HAI-2 (hepatocyte growth factor activator inhibitor-2) (protein, UniProt O43291 28-197, looked up)
chain: ADRERSIHDFCLVSKVVGRCRASMPRWWYNVTDGSCQLFVYGGCDGNSNNYLTKEECLKKCATVTENATGDLATSRNAADSSVPSAPRRQDSEDHSSDMFNYEEYCTANAVTGPCRASFPRWYFDVERNSCNNFIYGGCRGNKNSYRSEEACMLRCFRQQENPPLPLGSK
binds: Lys-plasmin | [1] | [2] | [3] | [4] | [5]
